Our source for the binding values is publication PMC7782510.

No constants are given. Whether binding was seen depends on the method and setting. In cells and extracts the contact can be indirect. Some binding calls cover weakened binding; strength is not graded here.

In assay [1] the target is T1, zinc finger protein 143 (ZNF143) (mouse (endogenous in murine HSPCs)) (UniProt O70230).
T1 sequence: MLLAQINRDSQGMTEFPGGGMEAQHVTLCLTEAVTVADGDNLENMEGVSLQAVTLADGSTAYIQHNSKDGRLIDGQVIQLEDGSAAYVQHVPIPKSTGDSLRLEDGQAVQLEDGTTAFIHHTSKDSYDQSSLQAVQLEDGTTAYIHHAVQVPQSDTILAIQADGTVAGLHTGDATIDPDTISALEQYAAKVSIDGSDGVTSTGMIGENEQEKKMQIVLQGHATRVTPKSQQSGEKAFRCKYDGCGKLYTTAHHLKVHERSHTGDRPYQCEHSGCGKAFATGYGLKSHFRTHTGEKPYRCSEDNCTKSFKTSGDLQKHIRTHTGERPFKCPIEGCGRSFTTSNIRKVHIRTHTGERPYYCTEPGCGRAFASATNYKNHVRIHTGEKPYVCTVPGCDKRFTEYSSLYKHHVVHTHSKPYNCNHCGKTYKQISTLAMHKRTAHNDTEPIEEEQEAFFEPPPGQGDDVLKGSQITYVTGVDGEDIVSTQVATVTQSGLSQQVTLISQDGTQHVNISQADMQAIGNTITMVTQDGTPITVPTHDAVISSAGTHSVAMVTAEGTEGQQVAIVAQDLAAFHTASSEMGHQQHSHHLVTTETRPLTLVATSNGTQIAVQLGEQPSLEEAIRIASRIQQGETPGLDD
The experiment in a line: co-IP; reciprocal co-IP of endogenous proteins from murine HSPC (lineage- c-kit+) lysate; IP buffer 50 mM Tris-Cl pH 8.0, 1% NP-40, 5 mM EDTA; antibody pre-bound dynabeads, overnight at 4 °C; five washes; Western blot. Background: Immunoblotting shows a protein as a band on a membrane.

Assay [2] concerns the target T2, CCCTC binding factor (CTCF) (mouse (endogenous in murine HSPCs)) (UniProt Q61164).
T2 sequence: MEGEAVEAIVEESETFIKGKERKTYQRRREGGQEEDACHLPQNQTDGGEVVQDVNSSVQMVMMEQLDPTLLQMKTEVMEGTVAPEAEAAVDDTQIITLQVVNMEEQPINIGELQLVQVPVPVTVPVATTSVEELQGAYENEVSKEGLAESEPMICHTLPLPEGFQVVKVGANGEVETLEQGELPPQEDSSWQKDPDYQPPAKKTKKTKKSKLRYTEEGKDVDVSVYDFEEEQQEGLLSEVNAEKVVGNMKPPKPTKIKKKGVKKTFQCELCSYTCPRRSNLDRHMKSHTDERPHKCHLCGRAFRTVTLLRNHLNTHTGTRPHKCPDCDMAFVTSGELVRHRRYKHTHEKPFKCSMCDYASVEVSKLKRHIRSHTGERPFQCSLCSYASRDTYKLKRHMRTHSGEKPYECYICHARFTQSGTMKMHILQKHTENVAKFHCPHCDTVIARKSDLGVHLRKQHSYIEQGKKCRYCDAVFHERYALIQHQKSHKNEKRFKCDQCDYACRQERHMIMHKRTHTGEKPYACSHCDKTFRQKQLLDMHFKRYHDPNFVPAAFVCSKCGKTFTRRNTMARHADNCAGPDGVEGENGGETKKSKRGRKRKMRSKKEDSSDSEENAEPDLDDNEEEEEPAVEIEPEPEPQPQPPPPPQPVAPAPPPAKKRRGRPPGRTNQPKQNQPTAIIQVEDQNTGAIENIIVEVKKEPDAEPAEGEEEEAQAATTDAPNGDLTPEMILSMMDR
The description is as above.

B1: CCCTC binding factor (CTCF) (protein, UniProt Q61164 1-736)
chain: MEGEAVEAIVEESETFIKGKERKTYQRRREGGQEEDACHLPQNQTDGGEVVQDVNSSVQMVMMEQLDPTLLQMKTEVMEGTVAPEAEAAVDDTQIITLQVVNMEEQPINIGELQLVQVPVPVTVPVATTSVEELQGAYENEVSKEGLAESEPMICHTLPLPEGFQVVKVGANGEVETLEQGELPPQEDSSWQKDPDYQPPAKKTKKTKKSKLRYTEEGKDVDVSVYDFEEEQQEGLLSEVNAEKVVGNMKPPKPTKIKKKGVKKTFQCELCSYTCPRRSNLDRHMKSHTDERPHKCHLCGRAFRTVTLLRNHLNTHTGTRPHKCPDCDMAFVTSGELVRHRRYKHTHEKPFKCSMCDYASVEVSKLKRHIRSHTGERPFQCSLCSYASRDTYKLKRHMRTHSGEKPYECYICHARFTQSGTMKMHILQKHTENVAKFHCPHCDTVIARKSDLGVHLRKQHSYIEQGKKCRYCDAVFHERYALIQHQKSHKNEKRFKCDQCDYACRQERHMIMHKRTHTGEKPYACSHCDKTFRQKQLLDMHFKRYHDPNFVPAAFVCSKCGKTFTRRNTMARHADNCAGPDGVEGENGGETKKSKRGRKRKMRSKKEDSSDSEENAEPDLDDNEEEEEPAVEIEPEPEPQPQPPPPPQPVAPAPPPAKKRRGRPPGRTNQPKQNQPTAIIQVEDQNTGAIENIIVEVKKEPDAEPAEGEEEEAQAATTDAPNGDLTPEMILSMMDR
Consider B1, for which, in assay [1], the binding result is recorded as “binds”.

B2: zinc finger protein 143 (ZNF143) (protein, UniProt O70230 1-638)
chain: MLLAQINRDSQGMTEFPGGGMEAQHVTLCLTEAVTVADGDNLENMEGVSLQAVTLADGSTAYIQHNSKDGRLIDGQVIQLEDGSAAYVQHVPIPKSTGDSLRLEDGQAVQLEDGTTAFIHHTSKDSYDQSSLQAVQLEDGTTAYIHHAVQVPQSDTILAIQADGTVAGLHTGDATIDPDTISALEQYAAKVSIDGSDGVTSTGMIGENEQEKKMQIVLQGHATRVTPKSQQSGEKAFRCKYDGCGKLYTTAHHLKVHERSHTGDRPYQCEHSGCGKAFATGYGLKSHFRTHTGEKPYRCSEDNCTKSFKTSGDLQKHIRTHTGERPFKCPIEGCGRSFTTSNIRKVHIRTHTGERPYYCTEPGCGRAFASATNYKNHVRIHTGEKPYVCTVPGCDKRFTEYSSLYKHHVVHTHSKPYNCNHCGKTYKQISTLAMHKRTAHNDTEPIEEEQEAFFEPPPGQGDDVLKGSQITYVTGVDGEDIVSTQVATVTQSGLSQQVTLISQDGTQHVNISQADMQAIGNTITMVTQDGTPITVPTHDAVISSAGTHSVAMVTAEGTEGQQVAIVAQDLAAFHTASSEMGHQQHSHHLVTTETRPLTLVATSNGTQIAVQLGEQPSLEEAIRIASRIQQGETPGLDD
Consider B2, for which the binding entry in assay [2] is recorded as “binds”.
